The source of these data is US12630850B2, “Enzymatic break down of chlorogenic acid in sunflower-containing products” (Chapman University, priority 2022, dated 2026).

Marks after values point to notes of the source that are not given here.

The nature of data set [1]: Colorimetry of sunflower protein powders. Conditions: for L* / a* / b*: protein isolate, enzyme present.
Data set [2] is described as follows: CIE L*a*b* determination of greening, sunflower flour cookies. Conditions: SFF cookies.

B1: CGA esterase: CGA esterase from L. helveticus (Genbank ID: WP_025283955.1, Uniprot ID: U6F2K7), expressed in Escherichia coli; the dimer is the active form (protein, listed as Lactobacillus helveticus)
chain: MSRITIERDGLTLVGDREEPFGEIYDMAIIMHGFAANRNTDLLRQIADDLRDENVASVRFDFNGHGESDGKFEDMTVCNEIADGKAILDYVRTDPHVRDIFLVGHSQGGVVASMLAGLYPDVVKKVVLLAPAAQLKDDALRSNTQGATYDPNHIPDWPLVGNKLGMKLGGFYLRTAQVLPIYEVSQCFTRPVSVIAGTNDQWDPKYAKKYDEVYENSELHMIPNADHRFSGGYKDMAADLTAQFLKPAF
Regarding B1, the “Color of enzymatically treated protein isolates” value in data set [1] (all three SFM types) is reported as “pale shade of brown”. In addition, the “L*” value amounted to 39.86 ± 9.48 in data set [1] (cold pressed), 34.28 ± 3.00 in data set [1] (hexane extracted) and 43.05 ± 5.02 in data set [1] (undefatted). Moreover, the “a*” value is recorded as −0.61 ± 0.21 in data set [1] (cold pressed), −0.48 ± 0.21 in data set [1] (hexane extracted) and 1.18 ± 1.02 in data set [1] (undefatted). Besides, the “b*” value worked out at 6.11 ± 2.67 in data set [1] (cold pressed), 6.70 ± 2.17 in data set [1] (hexane extracted) and 8.14 ± 0.96 in data set [1] (undefatted). For the same molecule, the “CIE a*” value in data set [2] (Direct Treatment, 0 hr) was 8.26 ± 0.42^abc; in data set [2] (Direct Treatment, 1 hr), 8.95 ± 0.41^ab; in data set [2] (Direct Treatment, 3 hr), 8.66 ± 0.83^ab; in data set [2] (Direct Treatment, 24 hr) it was 8.00 ± 0.56^abc; in data set [2] (Pretreatment, 0 hr), 10.07 ± 0.53^a; in data set [2] (Pretreatment, 1 hr) it was 9.67 ± 0.05^a. For the same molecule, the “CIE a*” value in data set [2] (Pretreatment, 3 hr) is on record as 9.69 ± 0.23^a; in data set [2] (Pretreatment, 24 hr) it was 9.84 ± 1.25^a.
